Measured values reported in paper PMC5552277.
The exact form of at least one protein or probe is not confirmed. At least one verdict was read from the data and is not stated in words by the source.

Test system: TFAM (WT) + POLRMT + TFB2M
Test: DNase I footprinting
Conditions: POLRMT/TFB2M 1 µM each, WT reference for CTΔ26; Footprinting: 10 mM HEPES pH 7.5, 10 mM MgCl2, 100 mM NaCl, 1 mM TCEP, 0.1 mg/mL BSA, 32°C; recombinant protein; label: 5'-32P on HSP1 or LSP template strand; probe letters rebuilt from the primers and the genome

“ATTGCTTTGAGGAGGTAAGCTACATAAACTGTGGGGGGTGTCTTTGGGGTTTGGTTGGTTCGGGGTATGGGGTTAGCAGCGGTGTGTGTGTGCTGGGTAGGATGGGCGGGGGTTGTATTGATGAGATTAGTAGTATGGGAGTGGGAGGGGAAAATAATGTGTTAGTTGGGGGGTGACTGTTAAAAGTGCATACCGCCAAAAGATAAAATTTGAAATCTGGTTAGGCTGGTGTT (double strand) [dual promoter template (DPT-WT)]”: binds.
